In US20110223256A1, “Method For Stabilizing Flavonoid Aqueous Dispersion” (STOKELY-VAN CAMP, INC., priority 2010, published 2011):
For some assays here: At least one read-out could not be matched to a standard name with certainty. For some assays here: At least one structure is not confirmed: it was looked up by name or label, or the drawing left a doubt.

Legend:
[1] = Chemical stability of quercetin during heating solubilizing process in polyols (FT-IR, carbon-13 NMR); assay type: physicochemical; details: dispersion with or without gellan gum isolated from beverage; spectra compared with starting material
[2] = Shelf life of aqueous dispersion in 20 oz beverage; assay type: physicochemical; details: stable = no settling, phase separation or precipitates
Method: As set forth in the examples below, stable aqueous dispersions containing bioactive compounds were prepared by using the solubilization and stabilization process. The resulting dispersions were fine, homogeneous, and stable. There were no settling, phase separation, and precipitates on the side of the bottle (See FIG. 3 and Table 1).

| Structure change during heating solubilization process [1] | Shelf Life (22-25° C.) [2] | SMILES |
| --- | --- | --- |
| no structure change | – | O=c1c(O)c(-c2ccc(O)c(O)c2)oc2cc(O)cc(O)c12 [Quercetin, 2-(3,4-dihydroxyphenyl)-3,5,7-trihydroxy-4H-chromen-4-one] |
| – | Stable after at least 3 months | C[C@@H]1O[C@@H](OC[C@H]2O[C@@H](Oc3c(-c4ccc(O)c(O)c4)oc4cc(O)cc(O)c4c3=O)[C@H](O)[C@@H](O)[C@@H]2O)[C@H](O)[C@H](O)[C@H]1O [Rutin, Rutin hydrate] |
